# Library screen at single concentrations

The chains behind the UniProt entries cited, without tags or fusion partners.
UniProt P9WFT3, whole entry: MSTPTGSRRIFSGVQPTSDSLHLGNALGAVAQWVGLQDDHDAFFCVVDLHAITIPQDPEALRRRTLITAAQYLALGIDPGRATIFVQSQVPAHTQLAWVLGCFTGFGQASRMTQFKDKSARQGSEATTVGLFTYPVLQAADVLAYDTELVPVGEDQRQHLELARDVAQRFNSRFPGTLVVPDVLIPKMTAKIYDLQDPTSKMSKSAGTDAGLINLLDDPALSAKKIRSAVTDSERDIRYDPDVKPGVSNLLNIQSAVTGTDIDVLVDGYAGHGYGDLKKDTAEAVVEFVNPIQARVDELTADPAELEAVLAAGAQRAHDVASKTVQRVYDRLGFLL
UniProt I6X8D2, whole entry: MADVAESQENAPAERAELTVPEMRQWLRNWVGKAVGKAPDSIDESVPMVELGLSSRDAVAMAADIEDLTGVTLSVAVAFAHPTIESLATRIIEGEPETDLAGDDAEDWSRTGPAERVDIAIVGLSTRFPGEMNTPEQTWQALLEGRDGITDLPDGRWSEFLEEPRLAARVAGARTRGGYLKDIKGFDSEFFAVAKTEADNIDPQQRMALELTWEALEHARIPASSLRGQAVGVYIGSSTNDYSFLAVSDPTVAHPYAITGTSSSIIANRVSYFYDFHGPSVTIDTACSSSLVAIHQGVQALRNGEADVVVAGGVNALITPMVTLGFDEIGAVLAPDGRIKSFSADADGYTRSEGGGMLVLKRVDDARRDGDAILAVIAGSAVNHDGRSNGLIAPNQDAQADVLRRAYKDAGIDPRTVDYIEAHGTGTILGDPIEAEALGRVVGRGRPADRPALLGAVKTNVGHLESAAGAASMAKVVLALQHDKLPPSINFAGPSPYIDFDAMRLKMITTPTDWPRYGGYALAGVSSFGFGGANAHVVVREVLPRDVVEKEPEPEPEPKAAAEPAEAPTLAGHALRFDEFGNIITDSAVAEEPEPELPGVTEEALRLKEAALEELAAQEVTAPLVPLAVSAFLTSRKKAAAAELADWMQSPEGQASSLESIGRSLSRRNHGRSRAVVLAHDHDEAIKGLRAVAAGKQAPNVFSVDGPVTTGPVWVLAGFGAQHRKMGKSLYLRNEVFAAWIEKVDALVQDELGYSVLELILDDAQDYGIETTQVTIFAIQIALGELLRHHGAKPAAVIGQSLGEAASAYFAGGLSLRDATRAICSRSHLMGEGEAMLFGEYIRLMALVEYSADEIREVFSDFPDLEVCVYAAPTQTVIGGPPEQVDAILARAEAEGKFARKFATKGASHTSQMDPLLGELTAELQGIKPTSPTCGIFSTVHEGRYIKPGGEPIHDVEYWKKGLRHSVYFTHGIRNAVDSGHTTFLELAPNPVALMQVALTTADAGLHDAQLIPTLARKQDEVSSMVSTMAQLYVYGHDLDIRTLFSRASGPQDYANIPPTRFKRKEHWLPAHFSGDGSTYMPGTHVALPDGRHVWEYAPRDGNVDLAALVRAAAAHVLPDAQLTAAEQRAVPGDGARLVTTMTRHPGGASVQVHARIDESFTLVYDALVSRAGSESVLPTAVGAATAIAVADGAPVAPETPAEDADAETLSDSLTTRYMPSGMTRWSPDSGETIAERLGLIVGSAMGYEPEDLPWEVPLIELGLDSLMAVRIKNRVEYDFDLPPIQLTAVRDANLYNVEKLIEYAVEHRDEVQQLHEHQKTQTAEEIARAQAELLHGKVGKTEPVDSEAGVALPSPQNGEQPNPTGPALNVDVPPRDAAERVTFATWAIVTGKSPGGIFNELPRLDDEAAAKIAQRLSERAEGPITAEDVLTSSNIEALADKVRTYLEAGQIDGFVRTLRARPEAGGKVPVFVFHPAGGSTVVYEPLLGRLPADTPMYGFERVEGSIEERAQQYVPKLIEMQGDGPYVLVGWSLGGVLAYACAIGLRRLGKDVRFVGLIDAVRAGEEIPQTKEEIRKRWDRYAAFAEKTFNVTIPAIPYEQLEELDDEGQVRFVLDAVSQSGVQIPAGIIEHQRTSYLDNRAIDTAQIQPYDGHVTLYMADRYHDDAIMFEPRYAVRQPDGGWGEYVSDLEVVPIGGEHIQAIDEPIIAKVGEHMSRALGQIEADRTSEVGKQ

From ChEMBL document CHEMBL3988442, “University of Dundee, Small-Polar-MMV Screening Library” (2021).

MtTrpRS: 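Tryptophan-tRNA ligase, Mycobacterium tuberculosis (UniProt P9WFT3). Enzyme assay of tryptophanyl-tRNA synthetase; the read-out is not stated. Concentration: 10 µM. Higher most likely means stronger inhibition; the record gives no direction and few retests gave an IC50. About 65,000 compounds were tested under these conditions; 0.098% (about 64) showed 50% or more at least once.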
Pks13 thioesterase: 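Polyketide synthase Pks13, Mycobacterium tuberculosis (UniProt I6X8D2). Enzyme assay of the thioesterase domain of polyketide synthase 13; the read-out is not stated. Concentration: 30 µM. The record gives no direction; the compounds picked for IC50 retests had high values, so higher reads as stronger inhibition. About 67,000 compounds were tested under these conditions; 0.46% (about 300) showed 50% or more at least once.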

Each number is a percent effect as filed. The record does not define 0% and 100%; most values in the screen are far below 50% and negative numbers occur (in some assays of this library far below -100). This is an unselected part of the compounds tested. A dash means the value is not listed here; it may have been measured.

SMILES | MtTrpRS | Pks13 thioesterase
CC(C)(C)S(=O)(=O)c1ccc(N2CCC(n3cncn3)CC2)cn1 | 1.732% | -23.59%
Cc1nnc(N2CCC(CS(N)(=O)=O)CC2)c(C#N)c1C | 1.798% | -4.285%
CCc1noc(-c2ccc(SCC(=O)O)nc2)n1 | -1.972% | -4.385%
CN(Cc1cnn(C)c1)C(=O)NCc1nnc2n1CCC2 | -2.439% | -28.62%
c1cnc2c(c1)cc([C@H]1CCCO1)n2CCN1CCCC1 | - | 1.386%
CC[C@@H](C)[C@@H](N)C(=O)Nc1cccc(-c2cnc(N(C)CCO)nc2)c1 | - | 3.961%
CCC(CO)N(Cc1cccs1)C(=O)Cc1ccncc1 (stereo not shown) | 4.615% | -4.653%
CN(CC(=O)N1CCCC1c1noc(C2CC2)n1)S(C)(=O)=O (stereo not shown) | -3.903% | -2.56%
O=C(CSC1CCc2ccccc2NC1=O)NCc1cccs1 (stereo not shown) | -0.3708% | -41.09%
CCOc1ncccc1C(=O)N1CCCC(n2nc(C)cc2C)C1 (stereo not shown) | 1.356% | -11.42%
CCC(CC)N(C)S(=O)(=O)c1ccc(CCNC(C)=O)s1 | -1.754% | -14.62%
CN1CCN(C2CCN(Cc3nnc(C(C)(C)C)o3)CC2)C1=O | -5.016% | -16.93%
COc1ccc(OCCNC(=O)CN(C)Cc2nnc(C)n2C)cc1 | -1.782% | -9.238%
FC(F)(F)c1cc(-c2cccs2)nc(N2CCN3CCCC3C2)n1 (stereo not shown) | -3.312% | 1.102%
Cc1nccn1-c1ccc(C(=O)NCC(F)(F)F)nn1 | -2.055% | -0.3127%
COCCn1c2c(ccc1=O)CCN(Cc1ccoc1)CC2 | 3.357% | 18.98%
NC(=O)c1cncc(N2CCN(Cc3cccc4nsnc34)CC2)n1 | -2.119% | -24.52%
COCCN(C)C[C@H]1CC[C@@H](Cc2ccc3c(cnn3C)c2)O1 | -1.737% | -
CC(O)CN1CCN(C(=O)c2cc3ccccc3[nH]c2=O)CC1 (stereo not shown) | 2.013% | -19.91%
COCCC(=O)N1CCC2(CC1)CC(c1ccccc1)CN(C)C2 (stereo not shown) | 1.253% | -9.3%
COC(=O)c1cccc(S(=O)(=O)NCC(c2ccco2)N2CCCC2)c1 (stereo not shown) | 2.234% | 4.331%
Cc1cccc(CN2CCCC3(Cc4ccccc4CNC3=O)C2)n1 (stereo not shown) | -1.124% | -18.34%
CCN(CC)S(=O)(=O)CC(=O)N1CCc2ccc(C)cc21 | -5.961% | -23.57%
Cc1cccc(OCCNC(=O)CN2CCCC2c2noc(C)n2)c1 (stereo not shown) | -3.952% | -14.2%
O=C(c1ccnc(N2CCOC(c3ccc(Cl)cc3)C2)c1)N1CCCC1 (stereo not shown) | -2.991% | -24.23%
Cc1cccc(CN2C(=O)CO[C@@H]3CN(Cc4cnn(C)c4)C[C@H]32)c1 | -0.4149% | 3.436%
c1cnc(N2C[C@H]3CCN(Cc4ccncc4)C[C@H]3C2)nc1 | - | -10.88%
c1cnc(N2CCC(OCCN3CCCCC3)C2)nc1 (stereo not shown) | -4.025% | -23.19%
Cc1nnc(N(CCC#N)CCC#N)s1 | -10.69% | 3.459%
O=C(Cc1ccc(F)cc1)NCCNCC1CNc2ccnn2C1 (stereo not shown) | 0.6966% | -16.69%
C[C@@H](NC(=O)c1cccnc1)c1onc(-c2ccccc2)c1C(=O)O | -5.416% | -31.26%
NC(=O)c1ccc(S(=O)(=O)NC(=O)COc2ccc3c(c2)CCC3)cc1 | -1.411% | -13.24%
CC(C)(C)OC(=O)NC(C)(C)c1noc(CSc2ccccn2)n1 | -3.597% | -15.78%
COc1cccc(COCC(=O)N2CCN(CC(C)(C)O)CC2)c1 | -3.302% | -6.254%
Cc1cc(C(F)(F)F)c2c(C3CCCN(C(=O)C4CC4)C3)noc2n1 (stereo not shown) | - | 7.5%
CCc1noc(C(C)N2CCC(NC(=O)c3ccc(C)s3)CC2)n1 (stereo not shown) | 1.408% | -24.06%
CS(=O)(=O)NC1CCN(Cc2coc(-c3ccc(Cl)cc3)n2)CC1 | -0.3631% | -0.5292%
CC(c1ccc(Cl)cc1)N1CCN(CCS(N)(=O)=O)CC1 (stereo not shown) | -1.175% | 1.393%
O=C(c1cocn1)N1CCC[C@]2(C[C@@H](OCC3CC3)CO2)C1 | -1.407% | -8.808%
Cc1nc(C(C)(C)NCc2ncc(C3CC3)o2)sc1C | -3.786% | 6.286%
O=C(N1CCOCC1)N1CC[C@H]2[C@@H]1CCC(=O)N2c1ccccc1 | 0.9017% | -34.42%
Cc1nn(C)c2c(NCCCn3cccn3)ncnc12 | -1.809% | -29.26%
CS(=O)(=O)NCC1Cc2ccccc2O1 (stereo not shown) | -1.329% | -
COc1cc(N2CCC3(CCN(C(=O)c4cccnc4)CC3)C2)ncn1 | 0.5162% | -28.69%
Cc1ccccc1CC(=O)N1C[C@@H](O)[C@H](N2CCOCC2)C1 | -0.8587% | -3.596%
CC1CCc2sc(C(=O)Nc3cnn(C)c3)cc2C1 (stereo not shown) | -1.413% | -16.43%
CCC(CC)NCC(C)Oc1cccnc1 (stereo not shown) | -4.446% | -1.218%
Cc1occc1C(=O)N1CCO[C@H]2[C@H](OCc3cccnc3)CC[C@@H]21 | -4.231% | 0.6229%
CCC(C)NC(=O)c1coc(COc2cccc(F)c2)n1 (stereo not shown) | -7.222% | -28.11%
Cc1cccc(CN2CC[C@@H]3O[C@@H](C(=O)N4CCN(C)CC4)C[C@@H]32)c1 | - | -4.086%
Cc1cc(C)c(CNC(=O)N2CCCC2c2ccccn2)c(=O)[nH]1 (stereo not shown) | 1.656% | -5.092%
COCC(=O)N1CCN(S(=O)(=O)c2cccs2)[C@H]2CS(=O)(=O)C[C@H]21 | 2.79% | -1.848%
Cc1nn(C)c(N2CCOCC2)c1CNC(c1cccs1)C(C)C (stereo not shown) | 2.632% | -22.52%
CCN(CC)C(=O)c1ccn(COc2ccc(F)cc2)n1 | 2.591% | -12.15%
Cc1nc2ccccc2n1CCNCc1cccc(C#N)c1 | 0.7424% | -12.5%
Cc1nc(CN2CC[C@H]3[C@H]2CCN3c2nncs2)cs1 | 5.426% | -25.12%
Cc1cc(C[C@@H]2COC[C@@H]2NC(=O)CNC(=O)N(C)C)on1 | 5.533% | 17%
Cc1noc(CCNC(=O)c2ccc(Br)c(S(=O)(=O)N(C)C)c2)n1 | -3.483% | 8.094%
O=C1COc2cc(C(=O)NS(=O)(=O)c3ccc(F)cc3F)ccc2N1 | 1.709% | 4.951%
CCOC(=O)N1CCC(N2Cc3ncccc3C2=O)CC1 | 3.109% | -16.49%
COc1cccc(OC)c1CN1CCC2(CC(Nc3ccncn3)C2)C1 (stereo not shown) | -1.75% | -18.88%
COCCC(=O)N1CCC2(CCCN2Cc2cccc(Cl)c2)C1 (stereo not shown) | -0.7712% | -6.647%
CC(C)C(=O)N1CC2(CCN(CC(C)(C)C)CC2)C1 | -2.344% | -24.39%

Repeated from the top, 6 entries:

SMILES	MtTrpRS	Pks13 thioesterase
CC(C)(C)S(=O)(=O)c1ccc(N2CCC(n3cncn3)CC2)cn1	1.732%	-23.59%
Cc1nnc(N2CCC(CS(N)(=O)=O)CC2)c(C#N)c1C	1.798%	-4.285%
CCc1noc(-c2ccc(SCC(=O)O)nc2)n1	-1.972%	-4.385%
CN(Cc1cnn(C)c1)C(=O)NCc1nnc2n1CCC2	-2.439%	-28.62%
c1cnc2c(c1)cc([C@H]1CCCO1)n2CCN1CCCC1	-	1.386%
CC[C@@H](C)[C@@H](N)C(=O)Nc1cccc(-c2cnc(N(C)CCO)nc2)c1	-	3.961%